Measurements: the supplement of paper PMC10849652
The other results are listed elsewhere or left out.

Amino acid sequences for entries named in this document (tags omitted). A change or cut given only in a name is not applied to a line headed by its entry.
UniProt Q9UQ80: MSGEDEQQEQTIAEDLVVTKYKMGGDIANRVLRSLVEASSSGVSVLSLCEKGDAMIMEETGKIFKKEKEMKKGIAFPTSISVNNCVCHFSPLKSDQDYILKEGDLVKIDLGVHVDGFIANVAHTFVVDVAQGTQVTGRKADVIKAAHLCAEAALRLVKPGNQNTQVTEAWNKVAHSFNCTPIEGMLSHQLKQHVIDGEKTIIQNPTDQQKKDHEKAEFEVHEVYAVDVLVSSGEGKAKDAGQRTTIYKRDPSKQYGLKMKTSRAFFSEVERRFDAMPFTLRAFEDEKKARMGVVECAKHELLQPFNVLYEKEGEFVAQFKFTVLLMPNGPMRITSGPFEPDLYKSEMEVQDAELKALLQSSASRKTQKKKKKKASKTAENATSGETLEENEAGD
UniProt Q96BN8, whole entry, looked up: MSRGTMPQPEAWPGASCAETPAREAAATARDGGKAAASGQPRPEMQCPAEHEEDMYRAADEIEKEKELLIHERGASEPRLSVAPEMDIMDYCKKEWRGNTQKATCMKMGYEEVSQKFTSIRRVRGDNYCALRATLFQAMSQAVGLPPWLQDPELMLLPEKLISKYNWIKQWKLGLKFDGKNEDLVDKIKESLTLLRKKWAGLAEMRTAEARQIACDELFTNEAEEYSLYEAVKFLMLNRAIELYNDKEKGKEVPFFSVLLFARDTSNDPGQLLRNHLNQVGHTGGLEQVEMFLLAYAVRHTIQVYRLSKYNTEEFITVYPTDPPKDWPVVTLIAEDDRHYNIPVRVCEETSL
UniProt Q9NRP0: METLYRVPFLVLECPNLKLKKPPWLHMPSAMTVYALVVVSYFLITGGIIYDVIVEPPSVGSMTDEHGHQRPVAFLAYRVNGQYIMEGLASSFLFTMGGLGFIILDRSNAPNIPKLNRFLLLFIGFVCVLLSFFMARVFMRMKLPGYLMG
UniProt P55809: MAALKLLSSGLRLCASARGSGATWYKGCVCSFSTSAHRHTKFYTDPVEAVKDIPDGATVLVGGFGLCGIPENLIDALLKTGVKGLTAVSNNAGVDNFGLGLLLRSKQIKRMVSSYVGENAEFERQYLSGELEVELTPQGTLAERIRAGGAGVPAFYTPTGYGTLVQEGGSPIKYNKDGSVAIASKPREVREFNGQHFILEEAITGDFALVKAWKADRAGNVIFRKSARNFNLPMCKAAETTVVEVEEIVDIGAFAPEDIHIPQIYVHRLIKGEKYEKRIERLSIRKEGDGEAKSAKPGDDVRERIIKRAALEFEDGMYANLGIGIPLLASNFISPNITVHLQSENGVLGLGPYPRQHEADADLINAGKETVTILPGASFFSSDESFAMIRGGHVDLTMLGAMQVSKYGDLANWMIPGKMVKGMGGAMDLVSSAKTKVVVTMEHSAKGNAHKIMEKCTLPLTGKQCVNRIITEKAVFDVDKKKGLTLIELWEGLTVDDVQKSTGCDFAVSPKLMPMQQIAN
UniProt O43929: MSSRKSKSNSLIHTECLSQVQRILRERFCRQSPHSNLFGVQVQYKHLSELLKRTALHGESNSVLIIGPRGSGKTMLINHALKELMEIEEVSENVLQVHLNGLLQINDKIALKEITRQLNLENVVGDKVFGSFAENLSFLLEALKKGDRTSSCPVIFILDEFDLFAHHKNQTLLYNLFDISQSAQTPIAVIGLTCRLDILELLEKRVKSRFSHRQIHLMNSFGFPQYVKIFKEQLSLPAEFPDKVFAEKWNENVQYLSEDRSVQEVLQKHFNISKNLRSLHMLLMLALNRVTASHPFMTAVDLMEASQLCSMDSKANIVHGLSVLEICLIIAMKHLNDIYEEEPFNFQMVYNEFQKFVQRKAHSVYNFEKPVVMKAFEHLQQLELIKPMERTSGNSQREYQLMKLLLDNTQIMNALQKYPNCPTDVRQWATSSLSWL
UniProt Q504Q3: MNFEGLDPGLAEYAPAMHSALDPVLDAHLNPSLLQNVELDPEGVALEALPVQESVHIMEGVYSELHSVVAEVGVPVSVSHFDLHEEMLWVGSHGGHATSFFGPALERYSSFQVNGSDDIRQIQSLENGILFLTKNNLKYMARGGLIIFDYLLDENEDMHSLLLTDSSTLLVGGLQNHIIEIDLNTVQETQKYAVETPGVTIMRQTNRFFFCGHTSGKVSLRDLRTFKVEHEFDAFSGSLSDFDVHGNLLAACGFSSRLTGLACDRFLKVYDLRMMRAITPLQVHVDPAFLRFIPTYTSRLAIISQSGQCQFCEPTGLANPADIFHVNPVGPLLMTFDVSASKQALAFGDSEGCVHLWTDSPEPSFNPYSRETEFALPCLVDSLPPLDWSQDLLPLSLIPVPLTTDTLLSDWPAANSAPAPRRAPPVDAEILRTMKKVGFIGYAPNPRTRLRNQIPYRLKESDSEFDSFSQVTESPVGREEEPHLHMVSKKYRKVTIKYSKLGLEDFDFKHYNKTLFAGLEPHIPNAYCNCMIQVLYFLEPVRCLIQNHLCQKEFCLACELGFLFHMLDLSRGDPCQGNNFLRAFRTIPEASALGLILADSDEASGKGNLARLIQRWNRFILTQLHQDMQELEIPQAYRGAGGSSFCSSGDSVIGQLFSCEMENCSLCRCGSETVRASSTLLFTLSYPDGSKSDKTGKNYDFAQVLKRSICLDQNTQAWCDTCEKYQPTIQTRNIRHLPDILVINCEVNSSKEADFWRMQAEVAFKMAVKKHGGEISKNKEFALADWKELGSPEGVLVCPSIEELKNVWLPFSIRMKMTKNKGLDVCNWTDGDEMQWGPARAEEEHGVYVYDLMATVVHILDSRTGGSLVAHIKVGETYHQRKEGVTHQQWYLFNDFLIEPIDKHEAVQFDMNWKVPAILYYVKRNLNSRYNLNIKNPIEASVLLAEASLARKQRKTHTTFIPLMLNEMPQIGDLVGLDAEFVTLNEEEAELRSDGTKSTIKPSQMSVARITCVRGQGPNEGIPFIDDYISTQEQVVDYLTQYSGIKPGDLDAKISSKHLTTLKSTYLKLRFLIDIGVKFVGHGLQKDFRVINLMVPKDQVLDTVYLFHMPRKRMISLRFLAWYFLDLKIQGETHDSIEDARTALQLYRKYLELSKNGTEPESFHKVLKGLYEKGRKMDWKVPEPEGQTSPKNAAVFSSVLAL
UniProt Q15102: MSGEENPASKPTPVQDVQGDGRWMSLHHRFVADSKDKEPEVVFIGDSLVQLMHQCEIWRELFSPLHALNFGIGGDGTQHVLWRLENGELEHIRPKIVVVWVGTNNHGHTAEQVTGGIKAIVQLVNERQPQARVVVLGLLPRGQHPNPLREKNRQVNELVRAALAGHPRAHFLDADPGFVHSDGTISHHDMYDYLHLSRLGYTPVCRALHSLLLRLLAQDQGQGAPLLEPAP
UniProt Q8NFH4: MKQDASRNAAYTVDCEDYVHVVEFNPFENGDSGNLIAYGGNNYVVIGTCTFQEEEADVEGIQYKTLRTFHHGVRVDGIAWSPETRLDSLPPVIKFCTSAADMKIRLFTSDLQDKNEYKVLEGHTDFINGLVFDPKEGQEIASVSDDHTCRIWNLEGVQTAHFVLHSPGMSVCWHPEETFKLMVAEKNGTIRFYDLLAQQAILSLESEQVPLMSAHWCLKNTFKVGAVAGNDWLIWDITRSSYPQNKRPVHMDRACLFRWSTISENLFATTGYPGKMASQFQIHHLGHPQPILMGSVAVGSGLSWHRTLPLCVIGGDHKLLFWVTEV
UniProt Q9H4L5: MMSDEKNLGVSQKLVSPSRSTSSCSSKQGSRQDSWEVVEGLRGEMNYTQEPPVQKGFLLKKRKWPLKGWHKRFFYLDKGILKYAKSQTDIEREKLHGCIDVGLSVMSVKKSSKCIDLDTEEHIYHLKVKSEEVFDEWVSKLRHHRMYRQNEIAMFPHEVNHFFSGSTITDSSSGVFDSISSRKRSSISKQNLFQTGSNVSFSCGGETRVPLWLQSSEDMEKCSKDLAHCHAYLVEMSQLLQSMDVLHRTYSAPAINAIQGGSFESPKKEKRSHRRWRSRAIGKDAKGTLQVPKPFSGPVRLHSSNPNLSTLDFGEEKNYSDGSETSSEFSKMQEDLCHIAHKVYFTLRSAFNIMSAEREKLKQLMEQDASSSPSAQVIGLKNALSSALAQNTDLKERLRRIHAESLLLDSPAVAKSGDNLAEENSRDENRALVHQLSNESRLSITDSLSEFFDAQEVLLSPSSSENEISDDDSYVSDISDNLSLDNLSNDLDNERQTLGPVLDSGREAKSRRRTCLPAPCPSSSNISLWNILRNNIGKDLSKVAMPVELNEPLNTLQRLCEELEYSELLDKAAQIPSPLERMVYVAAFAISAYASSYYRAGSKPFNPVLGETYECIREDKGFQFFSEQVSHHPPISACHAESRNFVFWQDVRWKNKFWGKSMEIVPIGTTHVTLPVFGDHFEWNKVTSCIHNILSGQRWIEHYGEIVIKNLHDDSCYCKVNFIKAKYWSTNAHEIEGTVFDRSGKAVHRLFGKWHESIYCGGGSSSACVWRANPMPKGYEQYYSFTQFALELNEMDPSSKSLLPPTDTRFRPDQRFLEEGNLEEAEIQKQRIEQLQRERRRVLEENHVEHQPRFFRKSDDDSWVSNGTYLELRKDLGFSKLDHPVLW
UniProt Q86W56: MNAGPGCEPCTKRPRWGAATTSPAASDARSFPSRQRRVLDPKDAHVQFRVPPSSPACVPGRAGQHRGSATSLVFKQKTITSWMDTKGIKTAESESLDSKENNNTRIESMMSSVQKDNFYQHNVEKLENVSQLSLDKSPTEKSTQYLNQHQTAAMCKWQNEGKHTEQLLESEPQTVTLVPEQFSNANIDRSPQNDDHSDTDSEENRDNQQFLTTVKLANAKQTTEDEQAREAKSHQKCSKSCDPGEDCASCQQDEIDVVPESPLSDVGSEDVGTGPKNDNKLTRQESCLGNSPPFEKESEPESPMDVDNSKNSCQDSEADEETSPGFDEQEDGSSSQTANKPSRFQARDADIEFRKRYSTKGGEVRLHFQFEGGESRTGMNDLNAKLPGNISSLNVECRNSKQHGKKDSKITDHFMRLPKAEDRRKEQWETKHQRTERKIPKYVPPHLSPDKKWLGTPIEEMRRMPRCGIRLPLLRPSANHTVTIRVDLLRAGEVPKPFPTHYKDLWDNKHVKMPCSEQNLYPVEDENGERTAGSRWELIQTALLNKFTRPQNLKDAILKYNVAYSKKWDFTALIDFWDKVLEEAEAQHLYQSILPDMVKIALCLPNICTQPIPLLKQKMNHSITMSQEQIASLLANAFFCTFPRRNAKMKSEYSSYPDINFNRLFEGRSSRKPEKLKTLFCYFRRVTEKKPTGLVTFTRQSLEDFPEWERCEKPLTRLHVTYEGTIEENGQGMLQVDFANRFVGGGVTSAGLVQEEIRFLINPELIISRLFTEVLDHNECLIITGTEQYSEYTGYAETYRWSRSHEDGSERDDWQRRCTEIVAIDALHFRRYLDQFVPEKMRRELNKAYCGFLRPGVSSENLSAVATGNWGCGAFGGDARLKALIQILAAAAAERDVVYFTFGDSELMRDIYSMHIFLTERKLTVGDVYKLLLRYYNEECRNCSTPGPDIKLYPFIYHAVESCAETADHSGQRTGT
UniProt Q01804: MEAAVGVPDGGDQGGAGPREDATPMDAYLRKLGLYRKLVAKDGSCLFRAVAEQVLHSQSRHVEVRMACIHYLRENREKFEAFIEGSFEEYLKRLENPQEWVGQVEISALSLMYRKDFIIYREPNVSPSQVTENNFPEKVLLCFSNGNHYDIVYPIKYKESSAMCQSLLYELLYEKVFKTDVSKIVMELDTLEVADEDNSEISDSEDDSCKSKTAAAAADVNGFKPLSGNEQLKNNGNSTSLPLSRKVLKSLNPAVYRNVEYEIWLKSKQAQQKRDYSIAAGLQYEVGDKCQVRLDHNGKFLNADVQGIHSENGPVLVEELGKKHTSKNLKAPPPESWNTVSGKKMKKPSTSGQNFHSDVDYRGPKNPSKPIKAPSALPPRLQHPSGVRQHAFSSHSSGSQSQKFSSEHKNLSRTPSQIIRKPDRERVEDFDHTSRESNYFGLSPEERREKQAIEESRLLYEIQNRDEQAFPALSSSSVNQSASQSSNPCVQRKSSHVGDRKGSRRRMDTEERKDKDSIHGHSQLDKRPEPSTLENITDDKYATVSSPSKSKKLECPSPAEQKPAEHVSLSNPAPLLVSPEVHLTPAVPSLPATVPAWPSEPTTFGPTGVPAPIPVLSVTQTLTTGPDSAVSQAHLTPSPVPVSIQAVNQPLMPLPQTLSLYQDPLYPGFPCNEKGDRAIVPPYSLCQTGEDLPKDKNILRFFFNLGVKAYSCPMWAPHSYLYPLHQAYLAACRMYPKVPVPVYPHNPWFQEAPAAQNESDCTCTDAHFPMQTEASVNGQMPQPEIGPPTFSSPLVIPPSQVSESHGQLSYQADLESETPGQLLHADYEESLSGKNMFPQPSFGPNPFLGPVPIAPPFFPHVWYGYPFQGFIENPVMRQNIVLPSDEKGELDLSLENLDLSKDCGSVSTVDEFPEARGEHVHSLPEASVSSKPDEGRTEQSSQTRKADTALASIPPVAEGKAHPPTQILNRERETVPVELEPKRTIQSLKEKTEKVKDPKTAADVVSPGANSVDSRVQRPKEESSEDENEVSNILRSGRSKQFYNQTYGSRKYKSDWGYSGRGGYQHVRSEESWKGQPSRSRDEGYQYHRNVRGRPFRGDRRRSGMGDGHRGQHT

What was measured:
Test in all cases: log2 fold change, soluble protein after heating vs DMSO (PISA); higher = thermal stabilisation; K562 lysate, 10 uM; active = over 0.2 and 3.5 SD of the protein, either way, in both replicates (recomputed)
[1] = compound: CCCS(=O)(=O)Nc1ccc(F)c(C(=O)c2c[nH]c3ncc(-c4ccc(Cl)cc4)cc23)c1F [vemurafenib]
Summary of the method: (§1)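 A 30 min treatment with 10 μM compound was applied to crude K562 extract at 1 mg/mL protein in PBS pH 7.4 with 1 mM MgCl2. Heating for 3 min spanned 48°C-58°C, after which aliquots were pooled, adjusted to 0.5% NP-40 at 4°C and spun at 21,000xg for 90 min. TMTpro 16plex LC-MS/MS of the supernatant, with channel sums equalised, gave values recorded as log-two fold change in thermal stability against solvent controls, from duplicates.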

[2] = compound: CCCS(=O)(=O)Nc1ccc(F)c(C(=O)c2c[nH]c3ncc(Cl)cc23)c1F
Summary of the method: as §1

[3] = compound: CCN(CCCOc1ccc2c(Nc3cc(CC(=O)Nc4cccc(F)c4)[nH]n3)ncnc2c1)CCOP(=O)(O)O [barasertib]
Summary of the method: as §1

[4] = compound: CC[C@@H]1C(=O)N(C)c2cnc(Nc3ccc(C(=O)NC4CCN(C)CC4)cc3OC)nc2N1C1CCCC1
Summary of the method: as §1

[5] = compound: CC[C@@H]1C(=O)N(C)c2cnc(Nc3ccc(C(=O)N[C@H]4CC[C@H](N5CCN(CC6CC6)CC5)CC4)cc3OC)nc2N1C(C)C [volasertib]
Summary of the method: as §1

[6] = compound: CCn1c(C(=O)N(C2CC2)C2CC2)cc2c3c(ncn3C)c(Nc3cc(C)n(C)n3)nc21
Summary of the method: as §1

[7] = compound: CCn1cc(-c2ccnc3[nH]c(-c4cccc(CN(C)C)c4)cc23)c(-c2ccc(NC(=O)N(C)C)cc2)n1
Summary of the method: as §1

[8] = compound: CN1CCC(CNc2ccc3ncc(-c4cccc(OC(F)(F)F)c4)n3n2)CC1
Summary of the method: as §1

[9] = compound: CN1CCN(CCOc2cc(OC3CCOCC3)c3c(Nc4c(Cl)ccc5c4OCO5)ncnc3c2)CC1 [saracatinib]
Summary of the method: as §1

[10] = compound: CN1CCN(c2nc(C3=C(c4c[nH]c5ccccc45)C(=O)NC3=O)c3ccccc3n2)CC1 [sotrastaurin]
Summary of the method: as §1

[11] = compound: CN1CC[C@H](c2c(O)cc(O)c3c(=O)cc(-c4ccccc4Cl)oc23)[C@H](O)C1 [alvocidib]
Summary of the method: as §1

[12] = compound: CN1CCc2c(c3ccccc3n2Cc2ccc(C(=O)NO)cc2)C1 [Tubastatin A]
Summary of the method: as §1

[13] = compound: CNC(=O)C1=CC=CC=C1NC2=NC(=NC=C2Cl)NC3=C(C=C(C=C3)N4CCOCC4)OC
Summary of the method: as §1

[14] = compound: CNC(=O)c1ccc(Nc2ncc(C(F)(F)F)c(NCc3nccnc3N(C)S(C)(=O)=O)n2)cc1 [defactinib]
Summary of the method: as §1

[15] = compound: CNc1nc(-c2ccc3c(N)n[nH]c3c2)cc(N2C[C@@H](C(=O)NC3CCCCC3)CC[C@H]2C)n1
Summary of the method: as §1

[16] = compound: COC(=O)N[C@@H](C)CNc1nccc(-c2cn(C(C)C)nc2-c2cc(Cl)cc(NS(C)(=O)=O)c2F)n1 [encorafenib]
Summary of the method: as §1

[17] = compound: COC(=O)[C@H](CCSC)NC(=O)C1=C(C=C(C=C1)NC[C@H](CS)N)C2=CC=CC=C2
Summary of the method: as §1

[18] = compound: COc1cc(Nc2ncc3c(n2)-c2ccc(Cl)cc2C(c2c(F)cccc2OC)=NC3)ccc1C(=O)O [alisertib]
Summary of the method: as §1

[19] = compound: COc1cc2nc(-c3cc(F)ccc3O)nc(N[C@@H]3CNC[C@H]3C(C)(C)O)c2cc1OC
Summary of the method: as §1

[20] = compound: COc1cc2ncnc(Nc3ccc(F)c(Cl)c3)c2cc1OCCCN1CCOCC1 [gefitinib]
Summary of the method: as §1

Target | log2 fold change [1] | log2 fold change [2] | log2 fold change [3] | log2 fold change [4] | log2 fold change [5] | log2 fold change [6] | log2 fold change [7] | log2 fold change [8] | log2 fold change [9] | log2 fold change [10] | log2 fold change [11] | log2 fold change [12] | log2 fold change [13] | log2 fold change [14] | log2 fold change [15] | log2 fold change [16] | log2 fold change [17] | log2 fold change [18] | log2 fold change [19] | log2 fold change [20]
OGFOD1 (UniProt Q8N543) | inactive: -0.01 | inactive: 0.016 | inactive: 0.016 | inactive: -0.034 | inactive: -0.03 | inactive: -0.033 | inactive: 0.003 | inactive: 0.047 | inactive: -0.002 | inactive: -0.012 | inactive: 0.01 | inactive: 0.025 | inactive: 0.016 | inactive: -0.017 | inactive: -0.037 | inactive: 0 | inactive: 0.051 | inactive: 0 | inactive: 0.028 | inactive: 0.018
PA2G4 (UniProt Q9UQ80) | inactive: -0.021 | inactive: 0.003 | inactive: -0.02 | inactive: -0.02 | inactive: -0.027 | inactive: 0.004 | inactive: 0.188 | inactive: -0.04 | inactive: 0.008 | inactive: -0.011 | inactive: 0.038 | inactive: -0.021 | inactive: -0.008 | inactive: 0.023 | inactive: -0.014 | inactive: -0.011 | inactive: 0.092 | inactive: -0.003 | inactive: -0.004 | inactive: -0.038
OBSL1 (UniProt O75147) | inactive: 0.021 | inactive: -0.033 | inactive: 0.065 | inactive: -0.013 | inactive: 0.094 | inactive: -0.008 | inactive: -0.017 | inactive: 0.016 | inactive: -0.02 | inactive: -0.019 | inactive: -0.005 | inactive: -0.034 | inactive: 0.054 | inactive: 0.057 | inactive: 0.054 | inactive: 0.017 | inactive: 0.063 | inactive: 0.129 | inactive: 0.144 | inactive: -0.061
OTULIN (UniProt Q96BN8) | inactive: -0.056 | inactive: -0.003 | inactive: -0.002 | inactive: -0.035 | inactive: -0.015 | inactive: 0.036 | inactive: -0.013 | inactive: 0.026 | inactive: 0.004 | inactive: -0.029 | inactive: 0.021 | inactive: -0.067 | inactive: -0.029 | inactive: 0.015 | inactive: -0.022 | inactive: 0.006 | inactive: -0.034 | inactive: 0.009 | inactive: 0.017 | inactive: 0.008
OSTC (UniProt Q9NRP0) | inactive: -0.126 | inactive: -0.009 | inactive: 0.177 | inactive: -0.158 | inactive: 0.04 | inactive: 0.036 | inactive: -0.157 | inactive: 0.024 | inactive: 0.142 | inactive: -0.055 | inactive: -0.003 | inactive: -0.091 | inactive: 0.019 | inactive: 0.043 | inactive: 0.061 | inactive: 0.037 | inactive: -0.292 | inactive: -0.15 | inactive: -0.048 | inactive: 0.055
OXCT1 (UniProt P55809) | inactive: 0.002 | inactive: 0.032 | inactive: 0.005 | inactive: 0.018 | inactive: 0.009 | inactive: -0.014 | inactive: 0.011 | inactive: -0.019 | inactive: -0.021 | inactive: -0.012 | inactive: 0.042 | inactive: 0.023 | inactive: -0.004 | inactive: -0.008 | inactive: 0.005 | inactive: 0.001 | inactive: 0.042 | inactive: -0.026 | inactive: -0.01 | inactive: -0.008
ORC4 (UniProt O43929) | inactive: 0.098 | inactive: -0.034 | inactive: 0.001 | inactive: -0.026 | inactive: -0.041 | inactive: 0.022 | inactive: -0.046 | inactive: -0.089 | inactive: 0.018 | inactive: -0.018 | inactive: 0.033 | inactive: -0.126 | inactive: -0.014 | inactive: 0.061 | inactive: 0.028 | inactive: 0 | inactive: 0.117 | inactive: 0.022 | inactive: -0.022 | inactive: -0.008
PAN2 isoform 2 (UniProt Q504Q3) | inactive: 0.072 | inactive: 0.031 | inactive: 0.03 | inactive: 0.041 | inactive: -0.132 | inactive: 0.031 | inactive: 0.006 | inactive: -0.04 | inactive: -0.021 | inactive: 0.018 | inactive: -0.023 | inactive: -0.025 | inactive: -0.018 | inactive: -0.099 | inactive: -0.046 | inactive: 0.08 | inactive: -0.041 | inactive: 0 | inactive: -0.043 | inactive: -0.044
PAFAH1B3 (UniProt Q15102) | inactive: -0.008 | inactive: 0.002 | inactive: 0.119 | inactive: -0.061 | inactive: -0.067 | inactive: 0.031 | inactive: -0.04 | inactive: -0.021 | inactive: 0.013 | inactive: -0.009 | inactive: 0.005 | inactive: -0.067 | inactive: 0.019 | inactive: 0.065 | inactive: -0.017 | inactive: -0.016 | active: 0.212 | inactive: 0.058 | inactive: -0.022 | inactive: -0.02
PABPC4 isoform 3 (UniProt Q13310) | inactive: 0.007 | inactive: 0 | inactive: -0.005 | inactive: 0.008 | inactive: 0.004 | inactive: 0.014 | inactive: 0.018 | inactive: -0.03 | inactive: -0.005 | inactive: -0.008 | inactive: 0.018 | inactive: -0.024 | inactive: -0.012 | inactive: -0.023 | inactive: -0.03 | inactive: -0.009 | inactive: 0.006 | inactive: -0.001 | inactive: 0.006 | inactive: 0.001
PARD6B (UniProt Q9BYG5) | inactive: -0.001 | inactive: -0.03 | inactive: -0.045 | inactive: 0.001 | inactive: -0.035 | inactive: 0.023 | inactive: -0.09 | inactive: -0.033 | inactive: 0.036 | inactive: -0.061 | inactive: 0.001 | inactive: -0.066 | inactive: 0.025 | inactive: -0.018 | inactive: -0.067 | inactive: 0.009 | inactive: 0.019 | inactive: -0.032 | inactive: -0.023 | inactive: 0.037
NUP188 (UniProt Q5SRE5) | inactive: -0.006 | inactive: -0.006 | inactive: 0.074 | inactive: -0.067 | inactive: -0.077 | inactive: 0.05 | inactive: -0.031 | inactive: -0.045 | inactive: 0.029 | inactive: 0.021 | inactive: 0.004 | inactive: -0.049 | inactive: -0.018 | inactive: 0.038 | inactive: -0.016 | inactive: -0.045 | inactive: 0.043 | inactive: -0.007 | inactive: 0.025 | inactive: 0.011
NUP37 (UniProt Q8NFH4) | inactive: 0.019 | inactive: 0.002 | inactive: -0.001 | inactive: -0.095 | inactive: -0.029 | inactive: 0.029 | inactive: -0.116 | inactive: 0.011 | inactive: -0.015 | inactive: 0.006 | inactive: -0.02 | inactive: -0.038 | inactive: 0.001 | inactive: -0.012 | inactive: -0.032 | inactive: 0 | inactive: -0.016 | inactive: 0.023 | inactive: 0.022 | inactive: 0.011
OSBPL3 isoform 2 (UniProt Q9H4L5) | inactive: 0.018 | inactive: 0.01 | inactive: 0.005 | inactive: -0.053 | inactive: -0.139 | inactive: 0.025 | inactive: -0.013 | inactive: -0.068 | inactive: 0.04 | inactive: 0.018 | inactive: -0.013 | inactive: -0.161 | inactive: 0.056 | inactive: -0.11 | inactive: -0.033 | inactive: 0.03 | inactive: 0.052 | inactive: -0.043 | inactive: -0.002 | inactive: 0.206
PARG (UniProt Q86W56) | inactive: 0.028 | inactive: 0.033 | inactive: 0.008 | inactive: -0.027 | inactive: -0.018 | inactive: -0.015 | inactive: 0.065 | inactive: -0.032 | inactive: 0.006 | inactive: 0.02 | inactive: 0.03 | inactive: -0.055 | inactive: 0.029 | inactive: 0.041 | inactive: -0.016 | inactive: 0.027 | inactive: 0.042 | inactive: 0 | inactive: 0.01 | inactive: 0.046
OTUD4 (UniProt Q01804) | inactive: 0.089 | inactive: 0.034 | inactive: 0.001 | inactive: -0.002 | inactive: -0.055 | inactive: 0.011 | inactive: -0.064 | inactive: 0.018 | inactive: 0.046 | inactive: 0.065 | inactive: 0.043 | inactive: -0.051 | inactive: -0.044 | inactive: 0.002 | inactive: 0.016 | inactive: 0.004 | inactive: 0.061 | inactive: 0.003 | inactive: 0.019 | inactive: -0.02

Not a retest: entries from further up.
Target | log2 fold change [1] | log2 fold change [2] | log2 fold change [3] | log2 fold change [4] | log2 fold change [5] | log2 fold change [6] | log2 fold change [7] | log2 fold change [8] | log2 fold change [9] | log2 fold change [10] | log2 fold change [11] | log2 fold change [12] | log2 fold change [13] | log2 fold change [14] | log2 fold change [15] | log2 fold change [16] | log2 fold change [17] | log2 fold change [18] | log2 fold change [19] | log2 fold change [20]
NUP37 (UniProt Q8NFH4) | inactive: 0.019 | inactive: 0.002 | inactive: -0.001 | inactive: -0.095 | inactive: -0.029 | inactive: 0.029 | inactive: -0.116 | inactive: 0.011 | inactive: -0.015 | inactive: 0.006 | inactive: -0.02 | inactive: -0.038 | inactive: 0.001 | inactive: -0.012 | inactive: -0.032 | inactive: 0 | inactive: -0.016 | inactive: 0.023 | inactive: 0.022 | inactive: 0.011
OSBPL3 isoform 2 (UniProt Q9H4L5) | inactive: 0.018 | inactive: 0.01 | inactive: 0.005 | inactive: -0.053 | inactive: -0.139 | inactive: 0.025 | inactive: -0.013 | inactive: -0.068 | inactive: 0.04 | inactive: 0.018 | inactive: -0.013 | inactive: -0.161 | inactive: 0.056 | inactive: -0.11 | inactive: -0.033 | inactive: 0.03 | inactive: 0.052 | inactive: -0.043 | inactive: -0.002 | inactive: 0.206
